# Reference: PubChem BioAssay AID540275 (National Center for Advancing Translational Sciences (NCATS), 2011)
# By UniProt entry, the sequences of proteins in these tests, tags left out.
# UniProt Q8NER1, whole entry, looked up: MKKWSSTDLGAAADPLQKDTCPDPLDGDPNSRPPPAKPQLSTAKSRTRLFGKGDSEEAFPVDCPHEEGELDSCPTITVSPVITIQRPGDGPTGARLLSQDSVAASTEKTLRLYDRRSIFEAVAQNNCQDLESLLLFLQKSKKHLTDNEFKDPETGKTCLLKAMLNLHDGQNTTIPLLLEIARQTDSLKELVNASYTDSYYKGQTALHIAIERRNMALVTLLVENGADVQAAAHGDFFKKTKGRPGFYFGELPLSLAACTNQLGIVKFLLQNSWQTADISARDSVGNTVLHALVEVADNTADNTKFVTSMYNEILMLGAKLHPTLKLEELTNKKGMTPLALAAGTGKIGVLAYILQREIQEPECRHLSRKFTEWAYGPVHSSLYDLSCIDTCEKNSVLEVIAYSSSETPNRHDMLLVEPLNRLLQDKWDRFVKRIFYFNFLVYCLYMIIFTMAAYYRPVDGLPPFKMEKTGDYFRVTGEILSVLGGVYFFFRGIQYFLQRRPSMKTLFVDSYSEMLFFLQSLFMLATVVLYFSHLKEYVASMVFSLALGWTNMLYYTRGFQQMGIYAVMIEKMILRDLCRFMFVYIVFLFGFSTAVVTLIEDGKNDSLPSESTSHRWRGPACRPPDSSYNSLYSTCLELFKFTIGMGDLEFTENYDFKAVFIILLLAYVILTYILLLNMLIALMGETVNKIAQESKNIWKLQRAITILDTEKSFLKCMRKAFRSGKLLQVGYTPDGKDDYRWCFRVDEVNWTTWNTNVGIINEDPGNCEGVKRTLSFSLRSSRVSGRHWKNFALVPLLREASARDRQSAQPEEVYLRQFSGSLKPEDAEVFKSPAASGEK
# In all, about 320,000 compounds went through this assay and about 620 (0.19%) were called active. Inconclusive means that the source gave no clear call. Such entries were picked first, then a sample of the others. No stated cut-off is given here; in the data, active means activation above about 80%; inconclusive means between about 30% and that limit; inactive means weaker than that.
# Target: Transient receptor potential cation channel subfamily V member 1 (Homo sapiens) (UniProt Q8NER1)
# Test: HTS Assay for Compounds that Act as Agonists of the Vanilloid Receptor 1; further: 0% is about no effect
# Conditions: TRPV1-expressing cells, Fluo-8 calcium influx, agonist mode; at 8.33 µM, hits give high values
# Outline: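 Fluo-8 calcium influx in TRPV1-expressing cells, kinetic read (ex 480/em 520 nm). Compound added and read 3 min for agonist activity, followed by capsaicin at EC20 final and 2 min further read for enhancement.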
row,Compound,activation
1,O=c1c(=NNc2ccccc2Cl)c(=O)c2ccccc12,inactive: 1.94%
2,Cc1ccccc1C(=O)Nc1ccc(N(C)C)c2ccccc12,inconclusive: 44.6%
3,COC(=O)c1c(N2C(=O)[C@H]3[C@@H](C2=O)[C@]2(C(=O)Nc4c(C)cccc42)N2CCC[C@@H]32)sc(C)c1C,inconclusive: 34.1%
4,Cc1cc(CNC(=O)c2cc(Br)ccc2Cl)nn1C,inactive: 8.96%
5,CN(C)CCCn1c(NC(=O)C2CCCCC2)nc2ccccc21,inactive: 3.54%
6,O=C(NCc1ccncc1)C(=O)NCC(c1ccccc1)c1ccccc1,inconclusive: 45.8%
7,CC(=O)c1cccc(NC(=O)c2ccc(S(=O)(=O)N3CCCC3)cc2)c1,inconclusive: 33.7%
8,CC(OC(=O)CCC(=O)c1cccs1)C(=O)Nc1ccccc1[N+](=O)[O-] (stereo not given),inconclusive: 34%
9,COc1ccc(CC(=O)NNC(=O)c2cc(Cl)ccc2OC)cc1,inconclusive: 38.5%
10,CCCCCCSc1ccc([C@H]2N[C@@](C)(C(=O)OC)[C@H]3C(=O)N(CC)C(=O)[C@@H]23)cc1,inactive: 15.4%
11,O=C1N(c2ccc3c(c2)OCCO3)C(c2ccccc2)C1(F)F (stereo not given),inactive: 17.4%
12,CN(Cc1ccccc1)S(=O)(=O)c1ccc(OCC(=O)NCc2cccnc2)cc1,inconclusive: 33.6%
13,CC(C)N1C(=O)/C(=C\c2nc3ccccc3c(=O)[nH]2)c2ccccc21,inactive: 11.8%
14,COC(=O)c1sc(NC(=O)c2c(C)noc2C)nc1C,inactive: -1.73%
15,C=CCNC(=O)c1sc(-c2ccccc2)nc1C,inconclusive: 32.3%
16,Cc1cccc(N2C(=O)CN=C2Nc2nc(C)cc(C)n2)c1,inactive: -0.609%
17,CC(=O)Nc1ccc(Sc2ncnc3scc(-c4ccccc4)c23)cc1,inconclusive: 35.9%
18,CCOC(=O)C1=C(N)N2C(=O)C(C)SC2=C(C(=O)OC)C1c1cccc(OC)c1 (stereo not given),inconclusive: 35.8%
19,COc1ccc(-c2csc(NC(=O)CN3C(=O)CCC3=O)n2)cc1,inactive: -1.13%
20,O=C(CSc1ncn[nH]1)Nc1nc(-c2cccc([N+](=O)[O-])c2)cs1,inconclusive: 51.9%
21,COc1cccc(NC(=O)CSc2nc3ccccc3nc2N2CCOCC2)c1,inconclusive: 65.2%
22,CCc1cc(C(=O)N2CCCC(Nc3ccc(F)c(F)c3)C2)n(C)n1 (stereo not given),inconclusive: 53.4%
23,COC(=O)C(CCCCN1C(=O)C2C3C=CC(C3)C2C1=O)N1C(=O)C2C3C=CC(C3)C2C1=O (stereo not given),inactive: -0.535%

# 3 entries picked at random from those above, as already listed:
row,Compound,activation
4,Cc1cc(CNC(=O)c2cc(Br)ccc2Cl)nn1C,inactive: 8.96%
22,CCc1cc(C(=O)N2CCCC(Nc3ccc(F)c(F)c3)C2)n(C)n1 (stereo not given),inconclusive: 53.4%
15,C=CCNC(=O)c1sc(-c2ccccc2)nc1C,inconclusive: 32.3%

# Quoted from above (two entries):
row,Compound,activation
20,O=C(CSc1ncn[nH]1)Nc1nc(-c2cccc([N+](=O)[O-])c2)cs1,inconclusive: 51.9%
21,COc1cccc(NC(=O)CSc2nc3ccccc3nc2N2CCOCC2)c1,inconclusive: 65.2%

# Continuation:

row,Compound,activation
1,CC(C)Oc1ccc(S(=O)(=O)N2CCCCC2)cc1NC(=O)C1CCC1,inconclusive: 54.3%
2,CCOC(=O)c1sc(NC(=O)c2sccc2C)cc1C,inconclusive: 31.5%
3,Cc1cccc(NC(=S)NC2CC3C=CC2C3)c1 (stereo not given),inconclusive: 54.7%
4,FC(F)Oc1ccc(NC(=S)NCc2nc3ccccc3[nH]2)cc1,inactive: -1.51%
5,CC(C)CCNC(=O)CSc1nc2ccccc2s1,inconclusive: 31.7%
6,Cc1ccccc1CN(C)CC(=O)NC(C)CCc1ccccc1 (stereo not given),inconclusive: 44.5%
7,O=C(COc1ccc2c(c1)CCC2)N1CCc2ccccc21,inconclusive: 66.3%
8,COc1ccc(N(C(=O)c2snc(C(N)=O)c2N)C(C(=O)NCc2ccccc2)c2ccc(F)cc2)c(OC)c1 (stereo not given),inconclusive: 39.3%
9,COc1ccc(NC(=O)C2CCCN(C(=O)Nc3ccc(OC)cc3)C2)cc1 (stereo not given),inconclusive: 48.7%
10,COc1cc(NS(C)(=O)=O)ccc1Nc1c2ccccc2nc2ccccc12,inactive: 2.53%
11,CC(C)(C)c1cc(NC(=O)Nc2ccccc2)no1,inconclusive: 42.8%
12,COc1ccc2[nH]cc(CCNC(=O)c3ccc4ccccc4n3)c2c1,inconclusive: 40.8%
13,COC(=O)C1=C(C)N(c2cc(C)cc(C)c2)/C(=C/c2ccco2)C1=O,inconclusive: 30.7%
14,O=C(CN1CCN(S(=O)(=O)c2ccccc2[N+](=O)[O-])CC1)Nc1ccc(N2CCOCC2)cc1,inactive: 4.6%
15,S=C(NCc1ccc(Cl)cc1)Nc1ccc(Cl)cc1Cl,inconclusive: 49.5%
16,S=C(NCC1CCCO1)N1CCN(c2ccc(Cl)c(Cl)c2)CC1 (stereo not given),inconclusive: 31.5%
17,Cc1ccc(Sc2ccc(CN3CCCC3)cc2[N+](=O)[O-])cc1,inactive: 1.13%
18,C=CCc1c(C)nc(-c2ccccc2)nc1N/N=C/c1ccncc1,inconclusive: 38%
19,COc1ccc(C(=O)CCC(=O)N2CCN(c3cc(C)ccc3C)CC2)cc1,inconclusive: 49.5%
20,COc1ccc(CC(=O)Nc2oc(-c3ccccc3)c(-c3ccccc3)c2C#N)cc1OC,active: 84.1%
21,CC(=O)NC12CC3CC(C1)CC(C(=O)Nc1nc4ccc(F)cc4s1)(C3)C2,inconclusive: 69.2%
22,O=C(NCc1ccco1)c1cnn2c(C(F)(F)F)cc(-c3ccccc3)nc12,inconclusive: 57.5%
23,O=S(=O)(c1ccc2ccccc2c1)N(CC1CO1)c1ccccc1 (stereo not given),inactive: 22.7%

row,Compound,activation
1,CCOC(=O)CC1Sc2ccccc2NC1=S (stereo not given),inconclusive: 30.4%
2,Cc1ccc(-c2onc3ccc(C4(C)OCCO4)cc23)cc1,inconclusive: 33.7%
3,O=C(NCc1ccccn1)c1ccc(-c2ccccc2)cc1,inconclusive: 48.9%
4,Cc1csc(NC(=O)CSc2ccc(-c3ccccn3)nn2)n1,inconclusive: 48.9%
5,CCOc1ccc(Br)cc1C1=NN(C(C)=O)C(c2ccc([N+](=O)[O-])s2)O1 (stereo not given),inactive: -1.69%
6,CC(C)Cn1[nH]c2c3c(ccc2c1=O)C(=O)c1ccccc1C3=O,inconclusive: 45.1%
7,CN1CCN(S(=O)(=O)c2ccc(SCCOc3ccc(Cl)cc3)nc2)CC1,inconclusive: 31.6%
8,CCn1c(C)c(C(C)=O)c(N2CCN(c3ccccc3)CC2)nc1=S,inactive: 12.5%
9,O=C(NCCc1cccc(Cl)c1)c1ccc(OC2CCN(Cc3ccccn3)CC2)cc1,inconclusive: 41.6%
10,Cc1ccc(SCCC(=O)N2CCC(C)CC2)cc1,inconclusive: 52%
11,O=C(NCC1CCCO1)c1cc([N+](=O)[O-])ccc1N1CCC(Cc2ccccc2)CC1 (stereo not given),inconclusive: 35.7%
12,S=c1[nH]nc(-c2ccccc2)n1Cc1ccccc1,inactive: 1.03%
13,Cc1c(NC(=O)/C(C#N)=C/c2ccc(-c3cc(Cl)ccc3Cl)o2)c(=O)n(-c2ccccc2)n1C,inactive: -1.07%
14,CSCc1ccc(C(=O)NCc2ccc(F)cc2)cc1,inconclusive: 44.3%
15,Cc1cccc(C)c1NC(=S)NNc1ncc(C(F)(F)F)cc1Cl,inactive: 3.92%
16,CC(=O)c1cccc(NC(=O)CCCOc2ccc(C)cc2)c1,inconclusive: 68.7%
17,O=S(=O)(Cc1cc(-c2ccccc2)no1)c1ccccc1,inconclusive: 30.8%
18,CC1CCN(C(=O)C2CCC(=O)N(Cc3ccc(Cl)cc3)C2)CC1 (stereo not given),inconclusive: 45.7%
19,CCOc1ccccc1-c1c2cc(O)c(=O)cc-2oc2cc(O)c(O)cc12,inconclusive: 34.1%
20,O=C(Nc1cccn2ncnc12)c1cccc(C(F)(F)F)c1,inconclusive: 53.3%
21,CCOc1ccc(NC(=O)COC(=O)C2(C)CC2(Cl)Cl)c([N+](=O)[O-])c1 (stereo not given),inconclusive: 35.4%
22,O=C(NCC1CCCO1)c1cncc(Br)c1 (stereo not given),inactive: -5.65%
23,C=C(Br)Cn1c(CCCC)nc2ccccc21,inconclusive: 30.1%

row,Compound,activation
1,O=C1/C(=C\c2cc([N+](=O)[O-])ccc2O)SC(=S)N1Cc1ccc(Cl)cc1,inconclusive: 38%
2,Cc1ccc(S(=O)(=O)N2CCN(C(=O)COC(=O)CSc3ccc(C)c(C)c3)CC2)c(C)c1,inactive: 1.48%
3,COc1ccc(-n2ncc3c(=O)n(Cc4c(F)cccc4Cl)cnc32)cc1,inconclusive: 39.4%
4,O=C(Nc1ccc2ccccc2c1)Nc1ccc2snnc2c1,inconclusive: 36.3%
5,COc1ccc(NC(=O)NCCCCc2ccccc2)c(OC)c1,inconclusive: 45.1%
6,Cc1ccc2c(CC(=O)N3CCN(S(=O)(=O)c4ccccc4)CC3)coc2c1,inconclusive: 56.7%
7,Fc1ccc(NC(=S)NCc2cccs2)cc1,inconclusive: 47%
8,CC(C)CCNC(=O)NC(=O)COc1c(F)c(F)cc(F)c1F,inconclusive: 32%
9,COc1ccc(OC)c(C(C)NC(=O)c2ccco2)c1 (stereo not given),inactive: -1.81%
10,Cc1ccc(C(=O)NC2CCC(C)CC2)s1 (stereo not given),inconclusive: 60.6%
11,FC(F)(F)c1ccc2c(c1)nc1n2CCCC1,inconclusive: 34.9%
12,COc1ccc(C(=O)Nc2ccc(NC(=O)c3cccs3)cc2)cc1[N+](=O)[O-],inactive: -7.85%
13,COc1ccc(NC(=O)Nc2ccccc2SC)cc1,inconclusive: 32.8%
14,CSc1nnc(NC(=O)c2cccc(S(=O)(=O)N3CCOCC3)c2)s1,inconclusive: 46.5%
15,Cn1c(CSCc2ccc(Cl)c(Cl)c2)nnc1SCC(=O)Nc1nccs1,inactive: 0.837%
16,COc1ccccc1C(=O)Nc1ccc(-c2nnc(SCC(=O)O)n2C)cc1,inactive: 0.123%
17,Cc1cccc(NC(=O)CSCC(=O)Nc2ccc(S(=O)(=O)N3CCCCC3)cc2)c1,inconclusive: 38.9%
18,COc1ccc(C(CNC(=O)c2ccc(-c3cccc(C(F)(F)F)c3)o2)N2CCOCC2)cc1 (stereo not given),inconclusive: 72.9%
19,CCOC(=O)C1(Cc2ccc(Cl)cc2)CCN(C(=O)C2CCCO2)CC1 (stereo not given),inactive: 25.9%
20,CC(C)c1ccccc1OCCNC(=O)c1cncc(Br)c1,inconclusive: 42.1%
21,CCOc1ccc(CNC(=O)c2ccc(Sc3ccc(C)cc3)c(NC(C)=O)c2)cc1OC,inconclusive: 38%
